These are yes or no findings as the source states them, for the method shown. Binding seen in cells or lysates may run through a third protein. Here binding means that the protein was enriched with, or labelled near, the bait; the list need not be complete. Tags and fused reporters may be left off the sequences shown. Each block holds one binder with its values, some of them ahead of it.
Key:
[1] = target: T1, Cdc10-mCherry (C. neoformans) (UniProt J9VMT9); assay: affinity purification with mass spectrom
T1 sequence: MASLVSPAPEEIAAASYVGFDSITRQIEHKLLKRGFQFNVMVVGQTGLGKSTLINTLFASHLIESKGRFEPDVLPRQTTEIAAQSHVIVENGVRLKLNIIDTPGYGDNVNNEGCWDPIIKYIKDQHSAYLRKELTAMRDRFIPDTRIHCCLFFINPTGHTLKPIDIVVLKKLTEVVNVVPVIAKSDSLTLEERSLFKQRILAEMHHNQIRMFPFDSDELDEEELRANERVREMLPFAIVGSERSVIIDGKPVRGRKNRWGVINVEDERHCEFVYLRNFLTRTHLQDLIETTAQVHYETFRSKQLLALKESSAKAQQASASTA

[2] = target: T2, Cdc3-mCherry (C. neoformans) (UniProt J9VUF2); assay: affinity purification with mass spectrom
T2 sequence: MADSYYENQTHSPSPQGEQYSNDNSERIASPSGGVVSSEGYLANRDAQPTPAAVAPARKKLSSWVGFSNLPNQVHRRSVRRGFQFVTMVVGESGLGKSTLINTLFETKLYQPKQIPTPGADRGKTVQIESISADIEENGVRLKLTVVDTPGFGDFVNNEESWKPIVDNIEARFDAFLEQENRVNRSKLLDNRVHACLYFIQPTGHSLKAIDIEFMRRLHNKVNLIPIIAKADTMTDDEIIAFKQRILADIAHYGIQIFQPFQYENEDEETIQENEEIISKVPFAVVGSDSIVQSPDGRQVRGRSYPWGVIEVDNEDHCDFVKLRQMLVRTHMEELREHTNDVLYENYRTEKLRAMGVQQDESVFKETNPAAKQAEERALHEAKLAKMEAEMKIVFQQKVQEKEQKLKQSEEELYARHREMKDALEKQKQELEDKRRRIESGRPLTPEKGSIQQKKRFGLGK

binding [1]: binds
binding [2]: binds
B1: ATP-dependent helicase (protein, UniProt J9VUT0 1-1092)
chain: MEFSNFEGASQYGPDIDDNTSLYSSIPPSVVTAPTISGDIASQLGDLNLGETTSGHAAAGQGYIDDFDEEIERNSFGEGVEHACSYCGIHNPQCVVKCLHCNKWFCNSRGNTSASHIVNHLVKAKHKEVILHKESALGDTIPECYNCGSKNVFMLGFIPAKSDTVVVLLCRQPCAALTSSRDINWDTSQWSAIIDDRQFLSWLVKVPSEAEQLRARQISLAQISKLEELWRENPNAKLEDAEAQSGEEEMQPILLKYEDAYQYQNILGPLVKVEADYDKRMKESQTENDITIRWDMGLNQKRLAWFCMPKLESGEVRLAVGDELKLKFAGTTSSVGIKGLQAFNKAGWGSSGDAVWEGVGSVVKIPNNASDEICLELRRNDGVPFDCTHGFSVDFIWKSTSFDRMQAAMKTFAIDEKSVSGYIYHKLLGHEVEPQVLRTQMPKRFAAPNLPELNHSQMSAVKAVLQKPLSLIQGPPGTGKTVTSASIVYHLAKMNPGQVLVCAPSNVAVDHLCEKIHQTGLKVVRLAAKSREALDSSVDFLSLHSQVANADTHHELQKLIQLRNDQGELSQSDERKYKTLVKACEKDILNAADVICTTCVGAGDPRLAKFKFRTVLIDEATQSAEPECMIPLVMGCKQAVLVGDHQQLGPVIMNKKAARAGLSQSLFERLVILGNHPIRLQVQYRMHPCLSEFSSNLFYEGTLQNGVTAPERLRKNVDFPWPVADTPMFFHQNLGTEEISSSGTSFLNRTEASNVEKMVTKFFKSGVLPNQIGVITPYEGQRSYIASYMQLHGSLKKDLYKEVEVASVDAFQGREKDYIILSCVRSNEHQGIGFLNDPRRLNVALTRAKYGVVILGNPKVLSKHPLWLYLLSHYKEKGCFVEGPLSNLQPSMVQFSRPKKSLAAAMDPFKRRETSAVEFLSKNIGHGQGGQSAAASRFDPAYYRTHNPLSFIPPDAQSVVSQAMTSSAFPLFGSVGGVSGGGGGVGGVGGHGGKNKTYTGYASSVVSQQPMDGGTAGAVLPPRAGQSQFDRFANVVGAGGGMGGVGVGSMGKGRRLSIGSEAASASMYAYGYKAGEDDTQSIAPSQAGMTEF

binding [1]: binds
binding [2]: binds
B2: Alpha-1,4 glucan phosphorylase (protein, UniProt J9VRE2 1-927)
chain: MAELTKENLDKVPASPGSSHSSRTPSLHQPEMSRRSSLSAGHPHSFKQVDPTQIGVPIVTPRKERPGHQRSLTGSYFPSQKGGIVDMPGEWPVGDEKTWREGKKAMTIDQENPQDVANTIVRHVNTSLGRQVYNVDEVAAYQATALSVRDQLLDRWNQTAAYHTAKAPKRVYYLSIEWLVGRSLDNAVLNLGMRNVYEEANRKLGFNFEDLLNEERDAGLGNGGLGRLAACYIDSMATLNLPGWGYGLRYNYGIFKQLISNSGEQLEAPDPWLDRENPWEIARLDVTYPIRFYGRVDPIPNTDRAVWSGGMECLAVAYDTPIPGYGTKNCANIRLWSAKPVQGFDLNSFNAGNYEASVAASSEVENITRVLYPNDNMYAGKKLRVMQQYLWVSASLQDMLRRFTKLDLPWTELPDYVCIQMNDTHPTLAIPELMRILIDEEKLDYNTAWKITQKVFAYTNHTVLPEALERWQLDLFEELLPRHLQIIYRINFDFLGLVAKRWPGDMDRIRRMSIIEEGSPKYVRMAYLAIVSSFKINGVAELHSQLLQATIFRDFVEFKGRDAFTNVTNGITPRRWLLQCNPELAALITHTLGSDDWATNLKLLKNLLPMADNADFRKAFTNIKMDNKCRLASLIEAELGITLNVNSVFMTQIKRLHEYKRQTLNLFGVIYRYLRIKQASPEERKKITKHTAIFAGKAAPGYYVAKLVIRLINNVARVVNDDPDVGDLLKVVFIPDYSVSIAEVLVPASDVSVQISTAGTEASGTSNMKLALNGALLLGTVDGANVEIAEDAGEDQSFLFGHLAEQVDEVRYANTYQPTPLEQRSPELAQTFKAIEAGTFGDGAIYAPLLKTVYEHDYYLVSNDFGSYLSAEKLMDECYDSDKTEWTRKSIITAFNMGDFSSDRSVQDYADGIWSVEPCEVPEGFSI

Source: publication PMC11651612
